{"source": "PubChem BioAssay AID504764 (Drosophila RNAi Screening Center, 2011)", "aim": "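Genes whose knock-down alters Notch-dependent transcription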 (primary screen)", "cell system": "Drosophila Kc167 cells", "reagents": "long dsRNA against Drosophila genes", "timing": "about 5 days (4 days dsRNA, then 24 h after transfection)", "challenge": "transfection of constitutively active membrane-tethered Notch lacking the extracellular domain, read 24 h later", "read-out": "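Light from a Notch-responsive E(spl)m3 luciferase reporter under active Notch, with control-promoter and no-Notch reporter wells to normalise; raw counts from paired wells a and b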", "reading the numbers": "induced reporter light, run 1, well a and induced reporter light, run 1, well b: higher = more light from the Notch target reporter with active Notch; control promoter light, run 1, well a and control promoter light, run 1, well b: higher = more light from the viral control promoter (cell number, transfection, viability); uninduced reporter light, run 1, well a: higher = more light from the Notch target reporter without active Notch", "rule for the call": "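Hit if the duplicate-averaged log2 ratio of induced to control-promoter light gives a plate-wise z beyond ±2, or induced to uninduced beyond ±1.8; weak-control or discordant-duplicate wells dropped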", "calls": "active = modifier hit (raised or lowered Notch signal); inactive = not a hit", "note": "In all, the deposit lists about 22,000 reagents; below is an unselected part of those with a known target gene and a result. Over the whole deposit, 403 (1.9%) are marked active. 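Unnormalised raw counts per well; ratio z-scores behind the hit calls and whether each hit raises or lowers signal are not deposited.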 The numbers tell different reagents against one gene apart. A plus sign joins genes that one reagent is predicted to hit. No sequences are given here. Not given: the amount of reagent."}
{"gene": "Hayan", "reagent": 1, "induced reporter light, run 1, well a": 99790, "induced reporter light, run 1, well b": 1.16e5, "control promoter light, run 1, well a": 99285, "control promoter light, run 1, well b": 54545, "uninduced reporter light, run 1, well a": 7900, "outcome": "inactive"}
{"gene": "Hayan", "reagent": 2, "outcome": "inactive"}
{"gene": "Sr-CIV (Scavenger receptor class C, type IV)", "reagent": 1, "induced reporter light, run 1, well a": 1.76e5, "induced reporter light, run 1, well b": 1.61e5, "control promoter light, run 1, well a": 1.74e5, "control promoter light, run 1, well b": 1.58e5, "uninduced reporter light, run 1, well a": 10495, "outcome": "inactive"}
{"gene": "alphaKap4 (alpha Karyopherin-4)", "reagent": 1, "induced reporter light, run 1, well a": 1.81e5, "induced reporter light, run 1, well b": 2.07e5, "control promoter light, run 1, well a": 3.16e5, "control promoter light, run 1, well b": 2.61e5, "uninduced reporter light, run 1, well a": 7255, "outcome": "inactive"}
{"gene": "CG32547", "reagent": 1, "induced reporter light, run 1, well a": 1.55e5, "induced reporter light, run 1, well b": 99555, "control promoter light, run 1, well a": 1.14e5, "control promoter light, run 1, well b": 1.09e5, "uninduced reporter light, run 1, well a": 8570, "outcome": "inactive"}
{"gene": "CG32547", "reagent": 2, "induced reporter light, run 1, well a": 1.37e5, "induced reporter light, run 1, well b": 1.45e5, "control promoter light, run 1, well a": 1.03e5, "control promoter light, run 1, well b": 96030, "uninduced reporter light, run 1, well a": 8435, "outcome": "inactive"}
{"gene": "CG32547", "reagent": 3, "induced reporter light, run 1, well a": 85695, "induced reporter light, run 1, well b": 93015, "control promoter light, run 1, well a": 1.00e5, "control promoter light, run 1, well b": 86920, "uninduced reporter light, run 1, well a": 12405, "outcome": "inactive"}
{"gene": "CG32547", "reagent": 4, "induced reporter light, run 1, well a": 44970, "induced reporter light, run 1, well b": 47510, "control promoter light, run 1, well a": 20085, "control promoter light, run 1, well b": 15355, "uninduced reporter light, run 1, well a": 18515, "outcome": "inactive"}
{"gene": "TBC1d7 + mRpS24", "reagent": 1, "induced reporter light, run 1, well a": 1.63e5, "induced reporter light, run 1, well b": 1.55e5, "control promoter light, run 1, well a": 1.86e5, "control promoter light, run 1, well b": 1.74e5, "uninduced reporter light, run 1, well a": 13315, "outcome": "inactive"}
{"gene": "Ppt1 (Palmitoyl-protein thioesterase 1)", "reagent": 1, "induced reporter light, run 1, well a": 1.30e5, "induced reporter light, run 1, well b": 1.44e5, "control promoter light, run 1, well a": 2.28e5, "control promoter light, run 1, well b": 2.55e5, "uninduced reporter light, run 1, well a": 9760, "outcome": "inactive"}
{"gene": "ttk (tramtrack)", "reagent": 1, "induced reporter light, run 1, well a": 78740, "induced reporter light, run 1, well b": 98110, "control promoter light, run 1, well a": 1.13e5, "control promoter light, run 1, well b": 1.07e5, "uninduced reporter light, run 1, well a": 7365, "outcome": "inactive"}
{"gene": "ttk (tramtrack)", "reagent": 2, "induced reporter light, run 1, well a": 43220, "induced reporter light, run 1, well b": 49210, "control promoter light, run 1, well a": 1.63e5, "control promoter light, run 1, well b": 1.25e5, "uninduced reporter light, run 1, well a": 5845, "outcome": "active"}

Called active (from the list above):
{"gene": "ttk (tramtrack)", "reagent": 2, "induced reporter light, run 1, well a": 43220, "induced reporter light, run 1, well b": 49210, "control promoter light, run 1, well a": 1.63e5, "control promoter light, run 1, well b": 1.25e5, "uninduced reporter light, run 1, well a": 5845, "outcome": "active"}
